Data reported in publication doi:10.1101/2020.07.16.207183.
Results are given in words; binding and its absence hold for the method and conditions named. Binding seen in cells or lysates may run through a third protein. Some results given as binding are weak or reduced against the parent protein; the word gives no strength. Each block holds one substance with its values, some of them ahead of it.

Protein sequences, listed by entry. Tags and fused reporters are not part of them. Lines headed by an entry give the natural chain unless they say otherwise; changes in a name come on top.
UniProt Q96D31: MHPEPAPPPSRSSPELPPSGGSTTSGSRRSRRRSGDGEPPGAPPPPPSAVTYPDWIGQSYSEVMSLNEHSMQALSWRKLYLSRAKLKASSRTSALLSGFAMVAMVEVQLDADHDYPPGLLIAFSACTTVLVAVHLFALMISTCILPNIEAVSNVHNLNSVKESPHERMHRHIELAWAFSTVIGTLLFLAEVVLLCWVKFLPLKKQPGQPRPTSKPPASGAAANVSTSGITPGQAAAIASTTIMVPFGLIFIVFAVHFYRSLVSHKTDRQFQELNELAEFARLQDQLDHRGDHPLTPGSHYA

Tests used:
Experiment in all cases: cross-linking
[1] = biological target: Orai1 K85E R91C H134A (human) (UniProt Q96D31)
[2] = biological target: Orai1 K85E V102C H134A (human) (UniProt Q96D31)
Orai1 R91C (human) = Orai1 R91C (human) (UniProt Q96D31)
Orai1 R91C H134A (human) = Orai1 R91C H134A (human) (UniProt Q96D31)
[3] = biological target: Orai1 R91C H134A E149K (human) (UniProt Q96D31)
[4] = biological target: Orai1 R91C H134A L174D (human) (UniProt Q96D31)
[5] = biological target: Orai1 R91C H134A S239W (human) (UniProt Q96D31)
Orai1 V102C (human) = Orai1 V102C (human) (UniProt Q96D31)
[6] = biological target: Orai1 V102C H134A (human) (UniProt Q96D31)

Substance: Orai1 K85E R91C H134A (from UniProt Q96D31-1 1-301)
binding [1]: binds

Substance: Orai1 R91C (from UniProt Q96D31-1 1-301)
binding (Orai1 R91C (human)): binds

Substance: Orai1 R91C H134A (from UniProt Q96D31-1 1-301)
binding (Orai1 R91C H134A (human)): binds

Substance: Orai1 R91C H134A L174D (from UniProt Q96D31-1 1-301)
binding [4]: binds

Substance: Orai1 R91C H134A S239W (from UniProt Q96D31-1 1-301)
binding [5]: binds

Substance: Orai1 V102C (from UniProt Q96D31-1 1-301)
binding (Orai1 V102C (human)): binds

The remaining lines, values ahead:

binding [2]: binds
Substance: Orai1 K85E V102C H134A (from UniProt Q96D31-1 1-301)

binding [3]: binds
Substance: Orai1 R91C H134A E149K (from UniProt Q96D31-1 1-301)

binding [6]: binds
Substance: Orai1 V102C H134A (from UniProt Q96D31-1 1-301)
